Measurements published in PMC9122951.
Results are given in words; binding and its absence hold for the method and conditions named. Binding seen in cells or lysates may run through a third protein.

Chains of the proteins cited; added tags and fusions are not shown. Lines headed by an entry give the natural chain unless they say otherwise; changes in a name come on top.
UniProt Q96AC1: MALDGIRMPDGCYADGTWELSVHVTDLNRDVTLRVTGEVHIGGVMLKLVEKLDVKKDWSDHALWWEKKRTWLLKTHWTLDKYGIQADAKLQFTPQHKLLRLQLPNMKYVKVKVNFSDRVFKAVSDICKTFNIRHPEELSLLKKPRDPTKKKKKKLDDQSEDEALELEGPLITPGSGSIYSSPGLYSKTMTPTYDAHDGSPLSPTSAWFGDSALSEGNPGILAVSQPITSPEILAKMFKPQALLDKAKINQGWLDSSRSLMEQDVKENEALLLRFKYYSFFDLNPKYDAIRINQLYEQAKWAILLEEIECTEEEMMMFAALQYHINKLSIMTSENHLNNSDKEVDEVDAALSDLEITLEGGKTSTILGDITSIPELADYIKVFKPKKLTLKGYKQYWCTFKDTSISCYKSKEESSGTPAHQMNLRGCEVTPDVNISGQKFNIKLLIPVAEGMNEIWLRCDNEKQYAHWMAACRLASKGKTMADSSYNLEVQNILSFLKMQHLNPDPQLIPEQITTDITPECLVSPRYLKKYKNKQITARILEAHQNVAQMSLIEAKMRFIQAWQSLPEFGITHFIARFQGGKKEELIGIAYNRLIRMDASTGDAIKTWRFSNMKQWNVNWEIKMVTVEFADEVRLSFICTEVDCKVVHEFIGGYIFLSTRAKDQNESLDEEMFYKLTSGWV
UniProt P10275: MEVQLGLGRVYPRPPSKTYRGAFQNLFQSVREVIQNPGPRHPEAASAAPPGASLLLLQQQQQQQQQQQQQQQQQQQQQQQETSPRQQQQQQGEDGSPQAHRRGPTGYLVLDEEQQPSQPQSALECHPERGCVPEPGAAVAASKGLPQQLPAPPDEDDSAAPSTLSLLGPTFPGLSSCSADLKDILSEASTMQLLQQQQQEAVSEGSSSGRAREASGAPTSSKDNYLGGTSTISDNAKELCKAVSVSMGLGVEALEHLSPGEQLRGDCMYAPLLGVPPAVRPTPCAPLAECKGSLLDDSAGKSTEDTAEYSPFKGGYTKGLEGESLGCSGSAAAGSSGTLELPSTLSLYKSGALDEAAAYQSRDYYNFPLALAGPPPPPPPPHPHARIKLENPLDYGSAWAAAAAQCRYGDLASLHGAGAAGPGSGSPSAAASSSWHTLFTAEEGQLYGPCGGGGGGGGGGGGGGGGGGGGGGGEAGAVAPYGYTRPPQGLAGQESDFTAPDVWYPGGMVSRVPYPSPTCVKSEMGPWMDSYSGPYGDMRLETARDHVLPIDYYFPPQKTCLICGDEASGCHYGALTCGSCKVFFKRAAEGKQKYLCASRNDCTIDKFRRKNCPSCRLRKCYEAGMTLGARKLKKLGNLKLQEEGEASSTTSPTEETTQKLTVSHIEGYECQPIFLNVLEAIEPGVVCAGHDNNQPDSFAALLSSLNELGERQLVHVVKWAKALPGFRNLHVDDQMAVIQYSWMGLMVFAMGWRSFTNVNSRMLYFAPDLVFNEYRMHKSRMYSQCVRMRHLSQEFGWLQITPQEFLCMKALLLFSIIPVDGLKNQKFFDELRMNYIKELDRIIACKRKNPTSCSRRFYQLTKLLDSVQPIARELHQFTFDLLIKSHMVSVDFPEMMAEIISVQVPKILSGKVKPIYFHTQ

Biological target: Flag-tagged F1-domain-deleted mutant of Kindlin-2 (UniProt Q96AC1)
Assay: co-IP; lysates of Kindlin-2 knockdown BT549 cells infected with lentivirus encoding 3×Flag-tagged Kindlin-2 WT, ΔF1 or ΔF0; IP with anti-Flag antibody, immunoblot for endogenous AR and Src

Androgen receptor (from UniProt P10275 1-920)
binding: no binding
